Results from publication doi:10.1101/2025.10.10.681657 (bioRxiv, 2025).

Key:
Snu13 [1] = biological target: T1, Snu13 (UniProt P39990); assay: EMSA; details: IC50 of compound 22 (0.5-20 uM) against 1 uM Snu13 complex; EMSA: 20 mM Tris-Cl pH 7.6, 150 mM NaCl, 0.1% Triton X-100, 2 mM DTT, room temperature, 8% native PAGE; RNA folded in 11.25 mM K-phosphate pH 7.0, 310 mM KCl, 5 mM EDTA; label: 5'-Cy5
T1 sequence (looked up, limits assumed): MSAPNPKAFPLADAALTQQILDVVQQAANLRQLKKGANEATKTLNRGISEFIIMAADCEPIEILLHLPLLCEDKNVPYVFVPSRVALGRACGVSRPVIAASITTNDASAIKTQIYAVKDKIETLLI

Snu13 [2] = biological target: T1, Snu13; assay: MST; details: MST: 10 mM HEPES pH 7.4, 150 mM NaCl, 0.005% Tween 20, 50 nM RNA (protein buffer, mixed 1:1 with RNA), label: 5'-Cy5

Sequence: GGCCUUAUGCACGGGAAAUACGCAUAUCAGUGAGGAUUCGUCCGAGAUUGUGUUUUUGCUGGUGUAAAUCAGCAGUUCCCCUGCAUAAGGCU [U4/U6 snRNA 92 nt construct]
- IC50 (Snu13 [1]): 3.2 µM
- Kd (Snu13 [2]; 10 uM compound 22): 806 nM
- Kd (Snu13 [2]; 10 uM neomycin): 207 nM

For at least one entry, the source does not settle the construct or the ends of the probe. Protein sequences can lack the tags named with them.
